Results published in the supplement of paper PMC3334620.
In all, about 33,000 sequences were measured (“E-score (-0.5 to 0.5)”: median about -0.015, highest 2% from about 0.3 on). The list shows a part of the results.

Each sequence was assayed against T1, Abf1 (UniProt P14164) (assay: PBM E-score (8-mer binding enrichment) (E-score (-0.5 to 0.5)); higher = stronger / more preferred TF binding). Conditions: protein concentration: 200 nM; construct: GST-full length.
T1 sequence: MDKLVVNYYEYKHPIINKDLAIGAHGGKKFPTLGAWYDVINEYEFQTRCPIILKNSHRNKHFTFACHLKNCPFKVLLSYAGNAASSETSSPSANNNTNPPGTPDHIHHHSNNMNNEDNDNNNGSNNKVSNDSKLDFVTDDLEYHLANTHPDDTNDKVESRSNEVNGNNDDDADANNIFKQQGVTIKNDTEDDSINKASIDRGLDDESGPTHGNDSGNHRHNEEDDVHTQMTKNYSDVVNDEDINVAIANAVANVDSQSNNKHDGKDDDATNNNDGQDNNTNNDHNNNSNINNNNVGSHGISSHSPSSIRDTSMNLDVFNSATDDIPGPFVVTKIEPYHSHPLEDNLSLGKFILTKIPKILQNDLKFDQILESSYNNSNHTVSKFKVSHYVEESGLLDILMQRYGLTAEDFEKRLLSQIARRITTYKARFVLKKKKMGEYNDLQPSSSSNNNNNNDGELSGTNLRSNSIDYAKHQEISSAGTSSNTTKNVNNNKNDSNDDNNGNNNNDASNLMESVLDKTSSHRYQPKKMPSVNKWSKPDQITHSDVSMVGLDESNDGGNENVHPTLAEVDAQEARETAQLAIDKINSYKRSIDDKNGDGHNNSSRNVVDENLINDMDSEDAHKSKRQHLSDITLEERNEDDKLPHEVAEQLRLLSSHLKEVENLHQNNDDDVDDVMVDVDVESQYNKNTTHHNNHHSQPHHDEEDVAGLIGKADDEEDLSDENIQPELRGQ
Summary of the method: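 Full-length yeast transcription factors or their DNA-binding domains, GST-tagged and expressed with PURExpress, were applied at about 100-200 nM to universal all-10-mer Agilent arrays. These arrays had been made double-stranded by primer extension on fresh or once-stripped slides. Detection used fluorescent anti-GST, normalisation used masliner, and E-scores for ungapped eight-base words pooled with reverse complements came from the Universal PBM Analysis Suite.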

| Sequence | PBM E-score |
| --- | --- |
| ACCGGCAG | -0.305 |
| CAGCGCGC | -0.108 |
| AACGACTC | 0.0243 |
| GCTACACA | -0.138 |
| CTGGAAAC | 0.0142 |
| GGAAAACC | -0.251 |
| GCCCGTCA | -0.00497 |
| CTACATTC | -0.12 |
| GACGTTCA | -0.00729 |
| GCGGCCCA | -0.308 |
| TGCTTTAA | 0.11 |
| ATTGGGAA | -0.0686 |
| CTATTCCC | -0.128 |
| CACGAATC | 0.181 |
| CGTATACA | 0.114 |
| ATTAGTAA | 0.0129 |
| GAGCCCTA | -0.194 |
| ATCGTTCG | 0.273 |
| AATCCTGA | -0.201 |
| CATGTTCA | -0.0791 |
| CCCTTACA | -0.0196 |
| CCGAGTGC | -0.178 |
| GTTCTTGA | 0.0397 |
| CATCCATC | -0.138 |
| GCGTCGAC | 0.0714 |

| Sequence | PBM E-score |
| --- | --- |
| AGTGGGTG | 0.0546 |
| AACCCTGG | 0.0177 |
| ACTTAGCC | 0.0333 |
| AATGTGTG | 0.102 |
| CGCTGTTA | -0.0333 |
| ACATATCT | 0.171 |
| CTTTTTGA | 0.0353 |
| CCTTGACA | -0.0249 |
| CCACCACA | -0.24 |
| AACAAAGG | -0.161 |
| CCGACTTA | 0.082 |
| GTGTCGAA | -0.0353 |
| AGCAGGAG | -0.0397 |
| ATTGTGTA | 0.147 |
| AGAGTCAG | -0.102 |
| AGATGATA | 0.364 |
| AACCTAAA | 0.0712 |
| CCCGTCAA | 0.0248 |
| CATTGCCG | 0.0936 |
| AGTAGACA | 0.1 |
| CACACTTC | -0.0074 |
| GAAGCCAC | 0.0321 |
| GAAGCAGA | -0.16 |
| AAACAGCT | -0.113 |
| GATGAATA | 0.0873 |

| Sequence | PBM E-score |
| --- | --- |
| AGGTACGA | 0.0832 |
| CTTTCAAC | -0.0534 |
| AACCTTGC | -0.0793 |
| ACCCTTAC | -0.0492 |
| CGATAAAA | 0.285 |
| CCTCAGGC | -0.0479 |
| AAGACCGG | -0.0657 |
| AGGGTTAG | -0.186 |
| CGGACTCC | -0.218 |
| GTCGTCCA | 0.236 |
| ACATATGA | 0.105 |
| GCGGAACA | -0.147 |
| GGGCGACC | -0.206 |
| CGGTGAAC | 0.0918 |
| CAGCTAGG | -0.341 |
| CACGTCTG | 0.146 |
| ACGTCACA | 0.0823 |
| CGATATAG | 0.241 |
| CAACTGCA | -0.0215 |
| AAATACAC | 0.12 |
| AGTGCAAA | 0.166 |
| ACCCGTCA | 0.015 |
| AGCGCCCC | -0.35 |
| CACGCTCG | -0.0364 |
| CTTTGTTA | 0.0123 |

| Sequence | PBM E-score |
| --- | --- |
| CTTGAGGA | -0.153 |
| ATTATGAC | 0.171 |
| CGGGACCC | -0.364 |
| AATGGGAC | -0.115 |
| CACGATCG | 0.339 |
| CAAATCGG | -0.0701 |
| CAACATAA | 0.0698 |
| GTGAGCAC | 0.0115 |
| CAGGTGCA | -0.258 |
| AGGGAATA | -0.0196 |
| TATATATA | 0.111 |
| ATGCATGG | 0.0114 |
| GTAAGTTA | 0.0983 |
| ATCTGGTA | -0.0336 |
| CAAGCATC | -0.0759 |
| ACGTACGC | 0.114 |
| AGACCTCC | -0.301 |
| CTCGTCTC | 0.134 |
| ACAAGGAC | 0.0507 |
| CGTTATTA | 0.191 |
| CTCTTCAG | -0.118 |
| ATGTTCAC | 0.0691 |
| AGGCGCTG | -0.199 |
| CCGACATC | 0.218 |
| GAAGTGGC | -0.197 |

| Sequence | PBM E-score |
| --- | --- |
| CCTACGGA | 0.0868 |
| GCCGTTTA | 0.102 |
| CGTTTGTA | 0.2 |
| GATGTCAA | -0.0282 |
| ATTCCAGA | -0.0736 |
| CATGGGGA | -0.0454 |
| GAGAATCA | -0.00605 |
| TATCCGCA | 0.111 |
| CGACCAAG | -0.133 |
| TGGAAAAA | -0.0303 |
| AGTACTAG | -0.0501 |
| CTTTTGAC | -0.0184 |
| AGAACAGA | -0.155 |
| CATGCTCC | 0.0168 |
| AGTGCGGG | -0.0483 |
| CTGCTTCA | -0.116 |
| CCCCAAGG | -0.403 |
| CAAAATTA | 0.0559 |
| GTTGCACA | -0.137 |
| AAATCCAC | 0.101 |
| CCAACTGA | -0.0672 |
| CGTCATAA | 0.207 |
| AAACATGT | 0.0799 |
| AACGTTTA | -0.0328 |
| GCCACTCC | -0.0636 |

| Sequence | PBM E-score |
| --- | --- |
| GTACGATA | 0.259 |
| AGAGCTTG | -0.169 |
| ATGAGAGG | -0.216 |
| ATTCACAG | -0.0305 |
| ACGAAGAA | 0.288 |
| AGCCCGTA | 0.161 |
| AAACACCC | -0.0385 |
| CCCGTCGC | 0.0854 |
| ACGGAATA | 0.0684 |
| ACGCCGGA | -0.053 |
| GATCAGTA | 0.176 |
| AATTTTGA | 0.205 |
| CCAAGGAA | -0.185 |
| ACTGCTAG | -0.165 |
| AGACTTTG | 0.0104 |
| AGGGGGGG | -0.41 |
| ACTATGGA | -0.013 |
| AAAGTGTC | -0.0383 |
| CCCGTCGA | 0.253 |
| GATAAAAA | 0.231 |
| CGAGATTC | -0.0478 |
| CGTCCCTA | 0.0477 |
| CTGGCTGC | -0.142 |
| CATGATAC | 0.236 |
| CCAAGTAG | -0.122 |

| Sequence | PBM E-score |
| --- | --- |
| CCTGGTCG | -0.0129 |
| ATTTTTTC | 0.14 |
| ATATACTG | 0.116 |
| AGGCAAGC | -0.195 |
| CTTTTGCC | 0.0132 |
| GGACAGCA | -0.0279 |
| ATTTCCTG | 0.146 |
| GAGACCCC | -0.253 |
| CGAATGAA | -0.164 |
| AAGTTACG | 0.256 |
| GCAGAAAC | 0.0525 |
| AGATCGCG | 0.166 |
| GCTAGATA | 0.053 |
| GACACGCA | -0.112 |
| ACTAAAAG | 0.0434 |
| CTAAGAGA | -0.00333 |
| GTATGGTA | 0.0367 |
| TATAGTCA | 0.0498 |
| CCAGACTC | -0.183 |
| AAGCTGAG | -0.223 |
| GAGAGCAC | 0.0115 |
| GACAGTAC | 0.196 |
